PubChem BioAssay (NCATS)
Inconclusive means that the source gave no clear call. Such entries were picked first, then a sample of the others. For some of these results: Where the call is inconclusive, the potency comes from a doubtful curve fit. The source made the active and inactive calls. Unless noted, calls follow the shape of the dose curve; as a rule, active = well fitted curve in the direction sought with a large enough effect; inconclusive = small, poorly fitted or top-dose-only effect, or another doubt; inactive = no such curve, though single readings can be large; an effect the other way counts as inactive or inconclusive.

By UniProt entry, the sequences of proteins in these tests, tags left out. Where a name states a change or a piece, a line headed by the entry shows the natural chain unless it says otherwise.
UniProt O15648: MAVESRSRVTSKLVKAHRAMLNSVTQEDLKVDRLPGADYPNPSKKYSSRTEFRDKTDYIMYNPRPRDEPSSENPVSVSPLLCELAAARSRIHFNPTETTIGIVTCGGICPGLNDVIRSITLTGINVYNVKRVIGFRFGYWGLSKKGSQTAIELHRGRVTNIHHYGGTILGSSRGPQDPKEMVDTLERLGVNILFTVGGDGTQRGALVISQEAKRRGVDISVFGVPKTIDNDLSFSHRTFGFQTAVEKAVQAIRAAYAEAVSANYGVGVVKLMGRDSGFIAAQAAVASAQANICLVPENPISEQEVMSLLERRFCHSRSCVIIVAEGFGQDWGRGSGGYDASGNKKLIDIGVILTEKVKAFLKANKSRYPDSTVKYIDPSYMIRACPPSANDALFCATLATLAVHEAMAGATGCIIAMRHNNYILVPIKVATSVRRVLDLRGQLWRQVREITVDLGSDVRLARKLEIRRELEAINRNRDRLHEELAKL
UniProt P03372, whole entry, looked up: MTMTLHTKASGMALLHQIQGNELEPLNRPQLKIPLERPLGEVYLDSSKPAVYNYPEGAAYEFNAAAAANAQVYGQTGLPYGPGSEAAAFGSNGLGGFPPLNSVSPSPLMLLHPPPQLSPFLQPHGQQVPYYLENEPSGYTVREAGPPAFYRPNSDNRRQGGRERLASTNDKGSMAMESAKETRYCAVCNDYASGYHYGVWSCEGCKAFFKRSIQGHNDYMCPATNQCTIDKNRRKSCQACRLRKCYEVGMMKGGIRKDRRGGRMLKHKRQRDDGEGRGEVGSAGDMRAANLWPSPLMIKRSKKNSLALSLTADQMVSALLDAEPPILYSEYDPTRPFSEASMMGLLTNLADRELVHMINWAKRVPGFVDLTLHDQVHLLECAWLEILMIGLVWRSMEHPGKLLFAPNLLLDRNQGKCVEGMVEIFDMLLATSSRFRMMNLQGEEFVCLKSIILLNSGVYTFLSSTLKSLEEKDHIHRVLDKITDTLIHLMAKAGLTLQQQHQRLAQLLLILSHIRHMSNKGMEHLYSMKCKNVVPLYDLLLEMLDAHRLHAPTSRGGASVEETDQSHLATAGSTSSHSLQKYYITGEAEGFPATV
UniProt P37231: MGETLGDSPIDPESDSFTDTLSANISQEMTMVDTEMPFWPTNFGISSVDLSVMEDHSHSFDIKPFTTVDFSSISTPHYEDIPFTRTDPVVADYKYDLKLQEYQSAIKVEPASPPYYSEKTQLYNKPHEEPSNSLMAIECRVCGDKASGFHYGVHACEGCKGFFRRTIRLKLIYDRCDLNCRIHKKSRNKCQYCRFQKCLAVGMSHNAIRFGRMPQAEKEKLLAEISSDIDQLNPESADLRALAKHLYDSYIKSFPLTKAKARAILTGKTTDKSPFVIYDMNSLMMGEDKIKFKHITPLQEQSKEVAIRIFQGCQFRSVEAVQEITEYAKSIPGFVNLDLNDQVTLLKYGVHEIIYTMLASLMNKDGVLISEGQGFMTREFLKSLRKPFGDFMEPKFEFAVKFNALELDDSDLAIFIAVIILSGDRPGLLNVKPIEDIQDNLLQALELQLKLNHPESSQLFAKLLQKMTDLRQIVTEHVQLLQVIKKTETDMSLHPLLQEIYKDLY
UniProt P08482: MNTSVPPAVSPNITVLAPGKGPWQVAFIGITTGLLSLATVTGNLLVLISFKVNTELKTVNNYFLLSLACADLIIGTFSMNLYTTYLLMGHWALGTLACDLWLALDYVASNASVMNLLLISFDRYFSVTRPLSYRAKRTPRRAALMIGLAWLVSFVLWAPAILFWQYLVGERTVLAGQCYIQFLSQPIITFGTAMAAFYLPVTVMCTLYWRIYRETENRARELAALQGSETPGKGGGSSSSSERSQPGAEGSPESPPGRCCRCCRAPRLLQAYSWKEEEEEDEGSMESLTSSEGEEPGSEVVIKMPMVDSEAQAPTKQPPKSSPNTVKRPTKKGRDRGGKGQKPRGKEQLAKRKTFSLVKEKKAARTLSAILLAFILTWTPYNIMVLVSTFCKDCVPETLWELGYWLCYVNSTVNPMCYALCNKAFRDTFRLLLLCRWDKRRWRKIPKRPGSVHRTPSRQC
UniProt O94782: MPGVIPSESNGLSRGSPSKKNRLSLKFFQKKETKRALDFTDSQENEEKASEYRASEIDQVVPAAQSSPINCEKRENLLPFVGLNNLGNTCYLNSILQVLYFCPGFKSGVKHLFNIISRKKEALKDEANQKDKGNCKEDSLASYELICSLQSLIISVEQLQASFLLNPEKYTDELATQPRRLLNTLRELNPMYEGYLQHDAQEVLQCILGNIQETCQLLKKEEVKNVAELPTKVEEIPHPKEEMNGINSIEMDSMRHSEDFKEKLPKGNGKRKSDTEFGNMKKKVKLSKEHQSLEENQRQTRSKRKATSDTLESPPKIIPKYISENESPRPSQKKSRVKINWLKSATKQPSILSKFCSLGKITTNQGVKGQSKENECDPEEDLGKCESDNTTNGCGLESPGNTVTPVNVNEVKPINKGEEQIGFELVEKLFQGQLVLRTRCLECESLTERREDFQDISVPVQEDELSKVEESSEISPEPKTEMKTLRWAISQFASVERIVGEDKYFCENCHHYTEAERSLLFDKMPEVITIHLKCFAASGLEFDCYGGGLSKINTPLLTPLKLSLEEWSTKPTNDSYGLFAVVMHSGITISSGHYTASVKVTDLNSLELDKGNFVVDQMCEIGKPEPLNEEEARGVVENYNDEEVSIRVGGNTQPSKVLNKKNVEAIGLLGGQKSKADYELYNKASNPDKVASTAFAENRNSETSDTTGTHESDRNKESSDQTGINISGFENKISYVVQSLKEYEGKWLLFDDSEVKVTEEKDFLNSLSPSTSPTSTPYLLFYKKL
UniProt P54132: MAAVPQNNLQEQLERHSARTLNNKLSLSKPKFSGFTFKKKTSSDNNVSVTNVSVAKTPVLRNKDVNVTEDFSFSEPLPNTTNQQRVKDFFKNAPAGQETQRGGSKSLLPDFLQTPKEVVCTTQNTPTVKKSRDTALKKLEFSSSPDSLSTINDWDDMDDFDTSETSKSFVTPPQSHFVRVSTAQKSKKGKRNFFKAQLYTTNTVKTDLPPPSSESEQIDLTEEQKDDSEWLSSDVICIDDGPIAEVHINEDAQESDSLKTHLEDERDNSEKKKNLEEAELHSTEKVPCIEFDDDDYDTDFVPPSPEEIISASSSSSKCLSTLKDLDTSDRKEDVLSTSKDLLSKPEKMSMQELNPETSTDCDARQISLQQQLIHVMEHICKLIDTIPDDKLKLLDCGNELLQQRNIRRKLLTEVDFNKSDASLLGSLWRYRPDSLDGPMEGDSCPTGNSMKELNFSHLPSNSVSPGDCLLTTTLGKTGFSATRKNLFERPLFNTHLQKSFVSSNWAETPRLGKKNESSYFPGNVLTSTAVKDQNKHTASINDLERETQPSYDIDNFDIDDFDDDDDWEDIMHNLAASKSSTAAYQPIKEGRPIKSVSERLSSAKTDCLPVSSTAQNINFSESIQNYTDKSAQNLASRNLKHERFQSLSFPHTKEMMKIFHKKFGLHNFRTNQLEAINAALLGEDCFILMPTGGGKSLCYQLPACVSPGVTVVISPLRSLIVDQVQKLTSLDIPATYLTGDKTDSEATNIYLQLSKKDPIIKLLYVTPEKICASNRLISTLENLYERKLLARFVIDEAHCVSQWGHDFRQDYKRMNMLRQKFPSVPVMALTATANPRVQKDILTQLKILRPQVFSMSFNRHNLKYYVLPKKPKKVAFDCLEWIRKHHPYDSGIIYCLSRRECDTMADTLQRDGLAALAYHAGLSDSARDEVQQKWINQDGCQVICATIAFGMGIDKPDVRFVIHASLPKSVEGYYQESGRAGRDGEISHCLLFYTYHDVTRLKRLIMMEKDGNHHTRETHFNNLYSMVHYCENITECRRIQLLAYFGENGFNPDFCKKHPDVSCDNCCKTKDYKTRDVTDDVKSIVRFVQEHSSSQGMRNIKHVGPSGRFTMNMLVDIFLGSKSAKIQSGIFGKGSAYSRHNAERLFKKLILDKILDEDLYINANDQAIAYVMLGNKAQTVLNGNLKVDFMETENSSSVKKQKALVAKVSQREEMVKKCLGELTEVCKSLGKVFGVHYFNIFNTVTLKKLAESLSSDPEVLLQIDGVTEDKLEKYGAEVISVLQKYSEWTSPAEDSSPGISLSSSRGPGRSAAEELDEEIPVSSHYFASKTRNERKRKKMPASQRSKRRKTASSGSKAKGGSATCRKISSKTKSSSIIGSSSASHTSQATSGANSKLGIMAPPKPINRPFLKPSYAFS
UniProt P15289: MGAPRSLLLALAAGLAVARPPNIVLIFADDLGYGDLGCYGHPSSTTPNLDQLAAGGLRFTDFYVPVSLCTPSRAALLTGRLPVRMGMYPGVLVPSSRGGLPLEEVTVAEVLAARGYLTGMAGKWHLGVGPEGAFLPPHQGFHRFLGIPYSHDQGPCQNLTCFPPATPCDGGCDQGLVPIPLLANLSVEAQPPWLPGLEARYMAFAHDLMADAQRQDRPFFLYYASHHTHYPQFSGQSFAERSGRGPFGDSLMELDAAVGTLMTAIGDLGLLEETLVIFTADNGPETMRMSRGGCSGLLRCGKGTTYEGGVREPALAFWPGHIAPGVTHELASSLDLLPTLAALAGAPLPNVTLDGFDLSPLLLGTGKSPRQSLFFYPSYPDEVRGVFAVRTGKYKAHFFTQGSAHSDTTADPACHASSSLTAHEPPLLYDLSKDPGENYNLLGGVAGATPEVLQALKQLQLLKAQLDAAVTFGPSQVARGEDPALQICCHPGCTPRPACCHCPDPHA

Tests used:
[1] = MultiTox-Fluor Cytotoxicity Assay - LYMP1-003 - Live Cells (AID 962); conditions: LYMP1-003 lymphoblastoid cells, MultiTox-Fluor live-cell protease fluorescence; at 92.2 µM (top of the series);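 also: 0% = DMSO only and full loss = 92 µM tetraoctylammonium bromide; cytotoxic hits lower the live-cell protease signal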
Method in brief: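 LYMP1-003 human lymphoblastoid cells (2500/well) in complete medium were preincubated 5 hr at 37 C, then exposed to compounds for 16 hr at 37 C. Live-cell protease cleavage of GF-AFC read by fluorescence (Ex/Em 405/510); AC50 from Hill fits.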

[2] = qHTS for differential inhibitors of proliferation of Plasmodium falciparum line HB3 (AID 1886); conditions: Potency: Plasmodium falciparum HB3 proliferation inhibition; series mostly up to 28.7 µM;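 also: parasites grown with compound for 72 h before SYBR Green readout; plate controls were vehicle for no effect and reference inhibitor for full effect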
[3] = target: ATP-dependent 6-phosphofructokinase (Trypanosoma brucei brucei) (UniProt O15648); experiment: qHTS Validation Assay to Find Inhibitors of T. brucei phosphofructokinase (AID 485368); also: potency is read from the fitted curve at half-maximal effect; conditions: T. brucei PFK enzyme assay, qHTS 7-point titration; series mostly up to 57.5 µM
Method in brief: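 Activity was normalized between 1x (1.25 nM) PFK wells as no inhibition and enzyme-free wells as full inhibition, from luminescence after ADP-Glo detection of ADP made from 0.5 mM F6P and 0.1 mM ATP over 45 min.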

[4] = target: Estrogen receptor (Homo sapiens) (UniProt P03372); experiment: qHTS assay for small molecule antagonists of estrogen receptor alpha signaling (AID 588513; active = well fitted curve in the direction sought with a large enough effect in the signal ratio, with a control signal flat, not every such curve was filed as active; inconclusive = small, poorly fitted or top-dose-only effect, or effect the other way, or a change in a side signal; inactive = no such curve, though single readings can be large or run the other way; the % refers to the signal ratio; also: % is scaled to controls: 0 for no effect and ±100 for the full control effect); conditions: ER-alpha-UAS-bla HEK293, beta-lactamase ratio, antagonist mode
Method in brief: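 ER-alpha-UAS-bla GripTite HEK 293 cells in medium with 2% charcoal/dextran-treated FBS were preincubated 4 h at 37 C, dosed with compound (1:2 titration), stimulated with 0.5nM 17-beta-estradiol for 18 h, then read by CCF4 beta-lactamase fluorescence.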

[5] = target: Estrogen receptor (Homo sapiens) (UniProt P03372); experiment: qHTS assay for small molecule agonists of estrogen receptor alpha signaling (AID 588514; calls by dose curve;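 also: 0% = vehicle only and 100% = reference agonist; nearly all actives have a fitted effect of over 70% in size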); conditions: ER-alpha-UAS-bla HEK293, beta-lactamase ratio, 18 h; series mostly up to 76.8 µM
Method in brief: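 ER-alpha-UAS-bla GripTite HEK 293 cells in medium with 2% charcoal/dextran-treated FBS were treated with compound titrations at 37 C for 18 hrs; beta-lactamase reporter read by CCF4 fluorescence after 2 hrs at RT.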

[6] = target: Peroxisome proliferator-activated receptor gamma (Homo sapiens) (UniProt P37231); experiment: qHTS assay for small molecule agonists of peroxisome proliferator-activated receptor gamma signaling (AID 588536; active = well fitted curve in the direction sought with a large enough effect in the signal ratio, with a control signal flat, not every such curve was filed as active; inconclusive = small, poorly fitted or top-dose-only effect, or effect the other way, or a change in a side signal; inactive = no such curve, though single readings can be large or run the other way; the % refers to the signal ratio;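 also: 0% = DMSO basal wells and 100% = rosiglitazone at 2 µM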); conditions: HEK293 PPARg-UAS-bla, beta-lactamase ratio, 16 h; activation: at 76.7 µM (top of the series), percent of rosiglitazone response, DMSO as zero
Method in brief: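 HEK293 UAS-bla reporter line, 1% charcoal/dextran FBS; titration, 16 h, 37 C; CCF4 loading 2 h RT; fluorescence 460/530 nm. Normalized to rosiglitazone 2 uM = 100%, DMSO = 0%.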

[7] = target: Peroxisome proliferator-activated receptor gamma (Homo sapiens) (UniProt P37231); experiment: qHTS assay for small molecule antagonists of peroxisome proliferator-activated receptor gamma signaling (AID 588537; active = well fitted inhibition curve with a large enough effect in the signal ratio, with a control signal flat, not every such curve was filed as active; inconclusive = small, poorly fitted or top-dose-only effect, or effect the other way, or a change in a side signal; the % refers to the signal ratio;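 also: reporter cells co-stimulated with 50 nM rosiglitazone agonist during compound treatment; % of control where 0% means no effect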); conditions: HEK293 PPARg-UAS-bla, beta-lactamase ratio, antagonist mode; activity, negative = inhibition: at 76.8 µM (top of the series)
Method in brief: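 Step one: plate 3000 HEK293 UAS-bla cells per well in medium with 1% stripped serum and hold 6-6.5 h at 37 C. Step two: add compound and 50 nM agonist for 16 h. Step three: CCF4 loading, fluorescence read.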

[8] = HTS Assay for Allosteric Antagonists of the Human D2 Dopamine Receptor: Hit Validation in HTRF (AID 624455); conditions: Cells stably expressing D1 dopamine receptor, inhibition mode; series mostly up to 46.1 µM;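 also: stable D1 dopamine receptor cell line scored for blocking the D1 response; % is scaled to controls: 0 for no effect and ±100 for the full control effect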
Method in brief: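 Hits were examined in an HTRF assay using cells stably expressing the D1 dopamine receptor, scoring inhibition of the D1-mediated response. The preceding primary screen tracked calcium flux after an EC80 dopamine addition in force-coupled, inducible Hek293 Trex D2 cells.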

[9] = test system: Zika virus NS2B-NS3 protease; experiment: Primary screen GU AMC qHTS for Zika virus inhibitors (AID 1347154); conditions: Zika NS2B-NS3 unlinked protease, AMC fluorogenic substrate; series mostly up to 54.1 µM; also: nearly all actives have a fitted effect of over 70% in size; also: potency is read from the fitted curve at half-maximal effect;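 as to activity change, negative = inhibition: 0% = no-inhibitor control and -100% = no-enzyme control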
Method in brief: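 Unlinked Zika NS2B hydrophilic domain–NS3 protease complex at 25 nM in 10 mM Tris-HCl pH 8.0, 0.01% Tween 20, with an AMC peptide substrate. Fluorescence change (340/450 nm) over 15 min at room temperature, normalized to controls, fitted to 4-parameter Hill.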

[10] = NFAT Signaling Pathway (AID 444; active = well fitted curve in either direction with a large enough effect, not every such curve was filed as active; inconclusive = small, poorly fitted or top-dose-only effect, or another doubt;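 also: carbachol stimulus at about its EC50 of 1 µM final; % is scaled to controls: 0 for no effect and ±100 for the full control effect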); conditions: Jurkat NFAT-bla M1, carbachol, beta-lactamase ratio, 5 h
Method in brief: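 Jurkat cells with NFAT-driven β-lactamase reporter and co-expressed M1 receptor, stimulated with carbachol (final 1 uM, ~EC50), compound titration, 5 h at 37 °C. CCF4 loaded 1 h at RT; 460/530 nm ratio gave %activity and AC50.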

[11] = target: Mitogen-activated protein kinase 10 (Mus musculus) (UniProt Q61831); experiment: JNK3 AlphaScreen Assay (AID 530; active = well fitted curve in either direction with a large enough effect, not every such curve was filed as active; inconclusive = small, poorly fitted or top-dose-only effect, or another doubt;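 also: kinase came from lysate of stimulated human HepG2 cells; potency is read from the fitted curve at half-maximal effect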); conditions: JNK3 lysate, c-Jun phosphorylation; activity change, negative = inhibition: at 57.1 µM (top of the series)
Method in brief: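 qHTS format: compounds tested as titrations against IL-1beta/TNF-alpha-activated HepG2 lysate JNK3 with biotin-GST-cJun substrate and 10 uM ATP at room temperature. Loss of anti-phospho-cJun AlphaScreen signal indicates inhibition.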

[12] = qHTS Assay for Identification of Small Molecule Antagonists for NFkB Signaling Pathway (AID 895; active = well fitted inhibition curve with a large enough effect in the signal ratio, with a control signal flat, not every such curve was filed as active; inconclusive = small, poorly fitted or top-dose-only effect, or effect the other way, or a change in a side signal; the % refers to the signal ratio; also: % is scaled to controls: 0 for no effect and ±100 for the full control effect); conditions: NFkB beta-lactamase reporter cells, FRET ratio 460/530, stimulated with 10 pM TNF alpha; activity change, negative = inhibition: at 38.3 µM (top of the series)
Method in brief: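 ME-180 NFkB-bla cells (beta-lactamase under NFkB response element), plated overnight, treated with compound then 10 pM TNF alpha (about EC50) for 5 hrs at 37 C. LiveBLAzer FRET read at 460/530 nm emission, 405 nm excitation.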

[13] = qHTS Assay for Identification of Small Molecule Agonists for Thrombopoietin (TPO) Signaling Pathway (AID 917); conditions: TPO signaling pathway reporter cells, agonist qHTS, stimulated with TPO at its EC50; series mostly up to 38.5 µM; also: % is scaled to controls: 0 for no effect and ±100 for the full control effect
Method in brief: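 Murine Ba/F3 cells stably expressing human TPO receptor and a Glycoprotein IIb promoter–luciferase reporter were IL-3-starved overnight, then treated with compounds plus TPO (26 pM final, its EC50) for 24 hrs at 37 C; luminescence was read.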

[14] = qHTS Assay for Identification of Small Molecule Antagonists for Thrombopoietin (TPO) Signaling Pathway (AID 918); conditions: TPO-dependent cell signaling reporter, antagonist mode; activity change, negative = inhibition: at 38.5 µM (top of the series)
Method in brief: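 Murine Ba/F3 cells stably expressing human TPO receptor and a Glycoprotein IIb promoter–luciferase reporter were IL-3-starved overnight, treated with compounds plus TPO (26 pM final, its EC50) for 24 hrs at 37 C, then read by luminescence.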

[15] = target: Muscarinic acetylcholine receptor M1 (Rattus norvegicus) (UniProt P08482); experiment: qHTS Assay for Antagonists of Acetylcholine Muscarinic M1 Receptor: Measurement of IP-One Response (AID 944); conditions: CHO-M1 cells, IP-One HTRF, antagonist mode; series mostly up to 46.1 µM; also: nearly all actives have a fitted effect of over 75% in size
[16] = target: Ubiquitin carboxyl-terminal hydrolase 1 (Homo sapiens) (UniProt O94782); experiment: Inhibitors of USP1/UAF1: Pilot qHTS (AID 504865); conditions: purified USP1/UAF1, Ub-rhodamine cleavage fluorescence; series mostly up to 54.9 µM; also: potency is read from the fitted curve at half-maximal effect; nearly all actives have a fitted effect of over 35% in size
Method in brief: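 USP1/UAF1 complex (1nM) preincubated with compound 15 min at room temperature, then Ub-Rho substrate (150nM final) added. Fluorescence read kinetically at 480/540 nm, 6 reads every 60 seconds. Buffer: 50mM HEPES pH 7.8, 0.5mM EDTA, 0.1 mg/ml BSA, 1mM TCEP, 0.01% Tween-20.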

[17] = qHTS for differential inhibitors of proliferation of Plasmodium falciparum line Dd2 (AID 1882); conditions: Potency: Plasmodium falciparum Dd2 proliferation inhibition; series mostly up to 28.7 µM;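 also: compound exposure of 72 h on infected erythrocytes; plate controls were DMSO vehicle for no effect and 0.29 µM artemisinin for full effect; nearly all actives have a fitted effect of over 65% in size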
Method in brief: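 SYBR Green I DNA fluorescence read-out, ex 485/em 535 nm. Signals were normalized to 0.29 uM artemisinin and DMSO wells, then corrected using vehicle-only plates flanking each stack. Parasite growth ran 72 h in erythrocytes before lysis.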

[18] = target: RecQ-like DNA helicase BLM (Homo sapiens) (UniProt P54132); experiment: qHTS Validation Assay for Inhibitors of Bloom's syndrome helicase (BLM) (AID 2364); conditions: BLM helicase DNA unwinding, fluorescence, in vitro; series mostly up to 57.1 µM; also: potency is read from the fitted curve at half-maximal effect
Method in brief: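 50 nM BLM preincubated 15 min at room temperature with compound in pH 8.0 Tris buffer containing 2.5 ug/ml poly(dI-dC); started with 200 nM TAMRA/BHQ-2 forked duplex and 2 mM ATP (final). Unwinding read as TAMRA fluorescence increase, two reads 2 h apart.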

[19] = Quantitative high throughput screen for delayed death inhibitors of the malarial parasite plastid, 96 hour incubation (AID 488745); conditions: Plasmodium falciparum growth; series mostly up to 28.7 µM; also: % is scaled to controls: 0 for no effect and ±100 for the full control effect; nearly all actives have a fitted effect of over 70% in size
Method in brief: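 P. falciparum carrying an integrated firefly luciferase reporter, grown in erythrocytes (2% hematocrit, 0.1% parasitemia final) in RPMI 1640/0.5% Albumax, was exposed to compound for 96 h (two generations) at 37 C, 5% CO2. Luminescence decrease indicated growth inhibition.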

[20] = Validation screen for small molecules that induce genotoxicity in human embryonic kidney (HEK293T) cells expressing luciferase-tagged ELG1 (AID 493106); conditions: luminescence; series mostly up to 46.1 µM; also: 0% is about no effect
Method in brief: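 HEK293T cells expressing luciferase-tagged ELG1 were exposed to compound or DMSO vehicle for 16 hr at 37 °C, 5% CO2. Genotoxic stress raises ELG1 levels, so increased luciferase signal after ONE-Glo addition and 30 min at room temperature marks hits.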

[21] = target: Arylsulfatase A (Homo sapiens) (UniProt P15289); experiment: qHTS screen for enhancers of Arylsulfatase A (ASA1): LOPAC Validation Assay (AID 720538); conditions: ASA enzyme activity, LOPAC qHTS enhancer assay; activity change, positive = activation: at 57.5 µM (top of the series); series mostly up to 57.5 µM
Method in brief: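 SV40-transformed skin fibroblasts from an MLD patient (ASA-I179S) were treated with compounds for 48h at 37 degree C, then lysed with 0.5mM pNCS final substrate for 14h at room temperature; NaOH stop, fluorescence read (Ex=525 nm; Em=598 nm).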

[22] = target: Muscarinic acetylcholine receptor M1 (Rattus norvegicus) (UniProt P08482); experiment: qHTS Assay for Antagonists of Acetylcholine Muscarinic M1 Receptor: Kinetic Measurement of Intracellular Calcium Response (AID 943); conditions: M1-expressing cells, kinetic intracellular calcium fluorescence; series mostly up to 35.3 µM; also: potency is read from the fitted curve at half-maximal effect; nearly all actives have a fitted effect of over 75% in size
Method in brief: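 CHO cells stably expressing rat M1 were loaded with no-wash Fluo-4 dye for 1 h at 37C, pre-incubated 10 min with compound, then challenged with EC80 carbachol (100 nM final); kinetic calcium read 4 min, peak/basal ratio.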

For `CN1CCC[C@H]1c1cccnc1`, the activity change, negative = fewer live cells [1] was inactive: -2.55%, the Potency [2] was “inactive” and the Potency [3] was “inactive”. For the same molecule, the activity, negative = inhibition ([4]; activity, negative = inhibition: at 76.9 µM (top of the series)) was inconclusive: -3.29%, the activity, negative = inhibition ([4]; at 76.9 µM (top of the series)) was inactive: 3.47% and the Potency [5] was “inactive”. For the same molecule, the Potency [6] was “inactive”, the Potency [7] was “inactive” and the Potency [8] was “inactive”. For the same molecule, the Potency [9] was inconclusive: 33.6 µM [inhibitor, single point].

For `CC(C)NC[C@H](O)c1ccc(NS(C)(=O)=O)cc1`, the activity change, negative = inhibition ([10]; at 17.2 µM (top of the series)) was inconclusive: 58.1% [activator], the activity change, negative = inhibition ([10]; at 38 µM (top of the series)) was inactive: -7.39% and the Potency [11] was inconclusive: 39.8 µM [activator, partial curve, poor fit]. For the same molecule, the Potency [12] was “inactive”, the Potency [13] was “inactive” and the activity change, negative = inhibition [14] was inconclusive: 1.47% [phenotype inactive]. For the same molecule, the Potency [15] was “inactive” and the Potency [9] was “inactive”.

With `CCCCCCCCCCCCCC(=O)O[C@H](CC(=O)O)C[N+](C)(C)C` the Potency [16] was active: 79.4 µM and the Potency [9] was inconclusive: 16.8 µM [inhibitor, partial curve].

For `COc1cc(C(O)C(=O)O)ccc1O` (stereo unspecified), the Potency [17] was “inactive”, the Potency [18] was inconclusive: 12.6 µM [inhibitor, partial curve, poor fit] and the Potency [3] was inconclusive: 8.49 µM [falling, single point]. For the same molecule, the Potency [19] was “inactive”, the Potency [20] was “inactive” and the Potency [21] was “inactive”. The Potency [9] was “inactive”.

In the case of `Cn1cc(C(F)(F)F)nc1-c1ccc(OC[C@@H](O)CNCCOc2ccc(O)c(C(N)=O)c2)cc1`, the activity change, negative = inhibition [12] is reported as inconclusive: -12.9%, the activity change, negative = inhibition [14] is reported as inconclusive: -20.7% [phenotype inactive] and the Potency [22] is reported as inconclusive: 22.4 µM [inhibitor, partial curve, poor fit]. The Potency [9] was inconclusive: 26.7 µM [inhibitor, partial curve].
